# The list shows a part of the results. The main result of the screen is listed elsewhere. These columns were measured beside it and carry no call. The list favours compounds with an active or inconclusive main result. The note in brackets gives the kind of curve behind each potency; many fits are weak.
# Assay: qHTS Assay for Lipid Storage Modulators in Drosophila S3 Cells;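 as to cell number change: cells counted by Cell Tracker Red CMTPX staining in the red channel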
# Conditions: BODIPY lipid droplet fluorescence, 18-24 h; for cell number change: measured here: cell count max response, cells fed with added oleic acid
# Outline: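 Drosophila S3 cells loaded with oleic acid (400 uM, as added) and compounds at several concentrations; lipid droplets imaged by 488-nm laser-scanning cytometry, 500–530 nm intensity and object ratio to cell channel. Percent activity normalized to 20 uM Triacsin C.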
# [1] = measured here: cell number channel AC50, cells fed with added oleic acid
# [2] = measured here: lipid fluorescence (Fed channel) AC50, cells fed with added oleic acid
structure (smiles),measurement,setting,value
COc1ccc(C(CNC(=O)c2ccc(S(=O)(=O)N3CCCC3)cc2)N(C)C)cc1OC (stereo not given),cell number change,,35.7%
same,AC50,[1],"6.51 µM [rising, single point]"
O=C(Cn1ccccc1=O)Nc1ccc(Cl)c(S(=O)(=O)N2CCCCC2)c1,cell number change,,13.7%
same,AC50,[2],"0.731 µM [rising, full curve, poor fit]"
Cc1ccc(C(=O)NCc2ccccn2)cc1S(=O)(=O)N1CCCCC1,cell number change,,-15.6%
O=C1CC2(CCN(C(=O)COc3ccc(Cl)cc3)CC2)Oc2ccccc21,AC50,[1],"0.366 µM [rising, full curve, poor fit]"
same,AC50,[2],"0.184 µM [rising, full curve, poor fit]"
COc1cc(NC(=S)Nc2ccccn2)c(OC)cc1Cl,cell number change,,7.68%
COc1ccccc1NC(=O)c1ccc(N2CC3CC(C2)c2cccc(=O)n2C3)c(NC(=O)c2cccnc2)c1 (stereo not given),cell number change,,9.25%
Cc1cc(=O)oc2cc(OCC(O)CN3CCN(c4ccccc4)CC3)ccc12 (stereo not given),AC50,[1],"1.16 µM [falling, full curve]"
same,AC50,[2],"23.1 µM [falling, partial curve]"
CN(c1ccc(OCC(=O)OCC(=O)Nc2ccccc2F)cc1)S(=O)(=O)c1cccs1,cell number change,,-8.15%
same,AC50,[1],"6.51 µM [rising, partial curve, poor fit]"
same,AC50,[2],"6.51 µM [rising, partial curve, poor fit]"
O=c1c2c(C(F)(F)F)cc(C(F)(F)F)nc2[nH]n1-c1ccccc1,cell number change,,33.1%
same,AC50,[1],"29.1 µM [rising, single point]"
N#Cc1cnc2ncnn2c1-c1ccccc1,cell number change,,-1.77%
Cc1ccc2sc(N3CCN(C(=O)c4ccc([N+](=O)[O-])o4)CC3)nc2c1C,cell number change,,-19.6%
same,AC50,[1],"1.3 µM [falling, full curve, poor fit]"
same,AC50,[2],"0.58 µM [falling, single point]"
CC(=O)Nc1nnc(SCc2cccc(F)c2)s1,cell number change,,-14.1%
same,AC50,[2],"0.0366 µM [falling, full curve, poor fit]"
O=C1NCCn2nc3ccccc3c21,cell number change,,-6.45%
same,AC50,[2],"2.06 µM [rising, partial curve]"
Cn1c(CC(=O)Nc2ccccc2)nnc1SCCOc1ccccc1,cell number change,,4.85%
CCOc1ccc(NC(=S)NC(=O)c2c(Cl)c(C)nn2C)c([N+](=O)[O-])c1,cell number change,,17.1%
same,AC50,[2],"13 µM [rising, single point]"
Cc1ccc(C)c2[nH]c(=O)c(CN(CCN3CCOCC3)Cc3nnnn3CC3CCCO3)cc12 (stereo not given),cell number change,,-8.15%
same,AC50,[2],"6.51 µM [rising, single point]"
COC(=O)c1cc(NC(=O)c2c(-c3ccccc3)noc2C)ccc1N1CCOCC1,AC50,[1],"0.58 µM [rising, partial curve]"
same,AC50,[2],"3.66 µM [rising, single point]"
O=C(CN1CCCCCC1)Nc1ccc(Br)cn1,cell number change,,-51.6%
same,AC50,[1],"0.092 µM [falling, full curve]"
CCCNC(=O)c1ccc(N2CCC3(CC2)CC(c2cccc(Br)c2)=NO3)c(NC(=O)c2cccc(OC)c2)c1,cell number change,,-18.1%
same,AC50,[1],"0.184 µM [rising, full curve, poor fit]"
CCOCCn1c(=O)c2c(nc3n2CC(C)CN3CCc2ccccc2)n(C)c1=O (stereo not given),cell number change,,3.67%
same,AC50,[2],"25.9 µM [falling, single point]"
COc1ccc(-c2cc(C(=O)N3CCN(c4ccccc4O)CC3)c3ccccc3n2)cc1OC,cell number change,,-33.2%
same,AC50,[1],"15.8 µM [falling, single point]"
same,AC50,[2],"12.6 µM [falling, single point]"
CCOc1nc(-c2ccccc2)c2cc(C)ccc2n1,cell number change,,-2.39%
same,AC50,[2],"6.51 µM [rising, partial curve, poor fit]"
CC(=O)Nc1nonc1NC(=O)c1ccc(C(C)(C)C)cc1,cell number change,,-24.2%
same,AC50,[2],"6.51 µM [rising, single point]"
C#Cc1ccc(CN2CCN(CCc3ccccc3)C(CCO)C2)cc1 (stereo not given),cell number change,,17%
same,AC50,[2],"29.1 µM [rising, single point]"
Cc1ccc(OCC(O)CN2CCOCC2)c(C)c1 (stereo not given),cell number change,,6.16%
same,AC50,[2],"29.1 µM [rising, single point]"
Cc1noc(C)c1S(=O)(=O)N1CCN(c2ccc([N+](=O)[O-])cc2)CC1,cell number change,,-13.1%
same,AC50,[2],"29.1 µM [rising, single point]"
CCc1c(C(=O)NNC(=S)NCC(C)C)csc1C,cell number change,,-47.6%
same,AC50,[1],"5.17 µM [falling, partial curve]"
COc1ccc(S(=O)(=O)NC(C)C(=O)NCc2ccco2)cc1OC (stereo not given),cell number change,,11.1%
same,AC50,[2],"29.1 µM [rising, single point]"
Cc1onc(-c2ccccc2)c1-c1nnc(CN2CCN(S(=O)(=O)c3ccccc3F)CC2)o1,cell number change,,-31.2%
same,AC50,[1],"23.1 µM [falling, partial curve, poor fit]"
same,AC50,[2],"0.0103 µM [falling, full curve, poor fit]"
O=C(COC(=O)CCS(=O)(=O)c1ccccc1)Nc1ccccc1,cell number change,,-1.94%
same,AC50,[2],"29.1 µM [rising, single point]"
Cc1ccccc1/C=C1\Sc2ccc(C(=O)N3CCN(c4ccccn4)CC3)cc2N(C)C1=O,AC50,[2],"1.84 µM [falling, partial curve]"
CC(C)CCOP(=O)(c1ccc(N(C)C)cc1)C(O)c1ccc(N(C)C)cc1 (stereo not given),cell number change,,-5.56%
same,AC50,[2],"20.6 µM [falling, partial curve, poor fit]"
O=C(NC1CCN(C(=O)Nc2ccccc2Cl)CC1)c1ccccc1,cell number change,,-36.4%
same,AC50,[1],"0.517 µM [falling, full curve, poor fit]"
same,AC50,[2],"6.51 µM [falling, partial curve, poor fit]"
O=C(NN/C(=N/S(=O)(=O)c1ccc(Cl)cc1)c1ccccc1)c1ccc(O)cc1,cell number change,,11.3%
same,AC50,[1],"0.731 µM [falling, full curve, poor fit]"
same,AC50,[2],"29.1 µM [rising, single point]"
Cc1ccccc1NC(=O)c1ccc(S(=O)(=O)N2CCCC2)cc1,cell number change,,-6.72%
same,AC50,[2],"0.00517 µM [rising, full curve, poor fit]"
CN(C)c1ccc(CNc2ncnc3sccc23)cc1,cell number change,,-1.35%
same,AC50,[2],"4.11 µM [rising, full curve]"
C=CCC(NCc1ccco1)c1ccc(OC)cc1OC (stereo not given),cell number change,,-13.4%
same,AC50,[2],"3.26 µM [falling, partial curve, poor fit]"
Cc1cc(N=Nc2c(O)c3ccccc3[nH]c2=O)ccc1N=Nc1ccc(C(=O)N(C)C)cc1,AC50,[2],"6.51 µM [falling, partial curve]"
CCOC(=O)CCCNC(=O)COC(=O)c1cccc(F)c1,cell number change,,-14.2%
same,AC50,[1],"2.31 µM [falling, partial curve, poor fit]"
C/C(=N/NC(=O)c1ccc2c(c1)OCO2)c1cccc(NC(=O)C(C)(C)C)c1,cell number change,,18.7%
same,AC50,[2],"0.517 µM [rising, full curve, poor fit]"
Cc1ccc(SCC(=O)Nc2nnc(-c3ccco3)o2)cc1,cell number change,,-30.6%
COc1ccc(C(=O)CSc2nnc(-c3ccco3)c(-c3ccco3)n2)cc1,cell number change,,-12.4%
same,AC50,[2],"29.1 µM [falling, single point]"
COCCN(C(=O)C1=COCCO1)c1c(N)n(CC(C)C)c(=O)[nH]c1=O,cell number change,,-10.3%
same,AC50,[2],"29.1 µM [rising, single point]"
COc1ccc(NC(C)=O)cc1NC(=O)CSc1nnc(C2CCCCC2)n1N,cell number change,,-1.98%
same,AC50,[2],"29.1 µM [falling, single point]"
Cc1ccc(NC(=O)NC(=O)CN2C(=O)NC3(CCCCCCC3)C2=O)c(C)c1,cell number change,,-36%
same,AC50,[1],"16.4 µM [falling, single point]"
same,AC50,[2],"29.1 µM [falling, single point]"
Cc1ccsc1/C=C1\SC(N2CC(C)OC(C)C2)=NC1=O (stereo not given),cell number change,,31.5%
same,AC50,[1],"8.2 µM [rising, partial curve]"
same,AC50,[2],"4.11 µM [rising, full curve]"
Cc1c(C(O)CN2CCC(C(N)=O)CC2)c2ccccc2n1C (stereo not given),cell number change,,-7%
same,AC50,[1],"6.51 µM [falling, single point]"
same,AC50,[2],"3.66 µM [falling, single point]"
O=C(NC1CCC(O)CC1)c1cc(-c2ccco2)nc2ccccc12 (stereo not given),cell number change,,40.5%
same,AC50,[1],"25.9 µM [rising, partial curve]"
O=C1CC(N2CCN(S(=O)(=O)c3ccccc3F)CC2)C(=O)N1c1ccccc1Cl (stereo not given),cell number change,,10.5%
same,AC50,[1],"2.59 µM [falling, single point]"
Cc1cc2ccccc2c(=O)n1CC(=O)Nc1ccc2c(c1)OCCO2,AC50,[1],"2.06 µM [falling, partial curve]"
same,AC50,[2],"3.26 µM [falling, partial curve]"
O=C(COC(=O)c1cccs1)NCc1ccc2c(c1)OCO2,cell number change,,-9.77%
same,AC50,[2],"0.0517 µM [rising, full curve, poor fit]"
COc1nccc(C(F)(F)F)c1C(=O)NC(=O)Nc1ccccc1,cell number change,,30.7%
same,AC50,[2],"2.59 µM [rising, full curve]"
CN(C)S(=O)(=O)N1CCN(c2ccc(Cl)cc2)CC1,cell number change,,-20.9%
Cc1noc(NS(=O)(=O)c2ccc(NC(=O)C(CC(C)C)N3C(=O)c4ccccc4C3=O)cc2)c1C (stereo not given),cell number change,,9.59%
same,AC50,[2],"0.731 µM [rising, single point]"
CC[n+]1c(/C=C/c2cc([N+](=O)[O-])ccc2O)ccc2ccccc21,cell number change,,0.676%
CSc1ccccc1-c1nnc(-c2ccc(Cl)c(Cl)c2)o1,cell number change,,10.4%
O=C(N/N=C/c1ccc([N+](=O)[O-])cc1)c1ccc(NS(=O)(=O)c2cccs2)cc1,cell number change,,-10.2%
same,AC50,[2],"0.82 µM [rising, full curve, poor fit]"
Cc1cc(Sc2nc(N)ncc2[N+](=O)[O-])ncn1,cell number change,,-59.2%
same,AC50,[1],"29.1 µM [falling, single point]"
same,AC50,[2],"29.1 µM [falling, single point]"

# Pulled one by one from the entries so far:
structure (smiles),measurement,setting,value
COc1ccc(C(CNC(=O)c2ccc(S(=O)(=O)N3CCCC3)cc2)N(C)C)cc1OC (stereo not given),cell number change,,35.7%
CN(C)c1ccc(CNc2ncnc3sccc23)cc1,cell number change,,-1.35%
CCOc1nc(-c2ccccc2)c2cc(C)ccc2n1,AC50,[2],"6.51 µM [rising, partial curve, poor fit]"
CCCNC(=O)c1ccc(N2CCC3(CC2)CC(c2cccc(Br)c2)=NO3)c(NC(=O)c2cccc(OC)c2)c1,AC50,[1],"0.184 µM [rising, full curve, poor fit]"
O=C1CC2(CCN(C(=O)COc3ccc(Cl)cc3)CC2)Oc2ccccc21,AC50,[1],"0.366 µM [rising, full curve, poor fit]"
